In PubChem BioAssay AID268 (DTP/NCI, 2004) one finds survivor count and T/C data, which are given here for 28 molecules.

The list is a part of this screen's results and no random one: it is rich in T/C values a quarter to a half above the control, in often repeated tests (any T/C) and in doses without a T/C. Further doses and runs are listed elsewhere. T/C is the treated group as % of the vehicle group. Schedule codes are those of the source, taken here to give the interval after Q, in days (D) or hours (H), and the number of doses after X. Some T/C values carry the count of animals alive at the toxicity check (mostly the fifth day); without a count, all were alive then. Some entries were tested several times; the values are given in rising order. Some entries give survivors of the animals treated and no T/C: the source files T/C as zero there, which appears to mark a toxic dose or a test without result, not a measured value. Survivors were counted at the toxicity check, usually on the fifth day, unless a day is given; later deaths do not show.

For the test, the system named is CD2F1 mice, P1798 lymphosarcoma sc, tumor weight T/C. Put plainly: NCI In Vivo Anticancer Drug Screen. Data for tumor model P1798 Lymphosarcoma (subcutaneous) in CD2F1 (CDF1) mice. The settings on record: higher T/C = larger tumour. How it is done: The antitumor activity of compounds was measured in mice bearing transplantable tumors. Survival or tumor size were measured and the results are expressed as the measurement made in the treated group (T) divided by the measurement made in the vehicle treated control group (C). The tumor model used in this assay is P1798 Lymphosarcoma (subcutaneous) in CD2F1 (CDF1) mice

[1] abbreviates: T/C endpoint: mean tumor weight, dose: 50.0 mg/kg/injection, schedule: Q01DX010 (sc), vehicle: steroid suspending solution.
Setting [2] is: T/C endpoint: mean tumor weight, dose: 100.0 mg/kg/injection, schedule: Q01DX010 (sc), vehicle: steroid suspending solution.
Where [3] appears, read: T/C endpoint: mean tumor weight, dose: 80.0 mg/kg/injection, schedule: Q01DX010 (ip), vehicle: saline.
The mark [4] stands for this setting: T/C endpoint: mean tumor weight, dose: 200.0 mg/kg/injection, schedule: Q01DX010 (ip), vehicle: saline.
The mark [5] stands for this setting: T/C endpoint: mean tumor weight, dose: 125.0 mg/kg/injection, schedule: Q01DX010 (ip), vehicle: saline.
Setting [6] is: T/C endpoint: mean tumor weight, dose: 40.0 mg/kg/injection, schedule: Q01DX010 (ip), vehicle: saline.
[7] abbreviates: T/C endpoint: mean tumor weight, dose: 50.0 mg/kg/injection, schedule: Q01DX010 (ip), vehicle: saline.
The mark [8] stands for this setting: T/C endpoint: mean tumor weight, dose: 100.0 mg/kg/injection, schedule: Q01DX010 (ip), vehicle: saline.

With `C[C@@H]1C[C@H]2[C@@H]3CCC4=CC(=O)C=C[C@]4(C)[C@@]3(F)[C@@H](O)C[C@]2(C)[C@@]1(O)C(=O)CO`, the survivor count is 2 of 10 on day 24 (T/C endpoint: mean tumor weight (est.), dose: 25.0 mg/kg/injection, schedule: Q01DX016 (sc), vehicle: saline); 1 of 6 (T/C endpoint: mean tumor weight, dose: 12.5 mg/kg/injection, schedule: Q01DX010 (sc), vehicle: steroid suspending solution); 2 of 6 (T/C endpoint: mean tumor weight, dose: 25.0 mg/kg/injection, schedule: Q01DX010 (sc), vehicle: steroid suspending solution); 0 of 6 and 1 of 6 under setting [1]; 0 of 6 under setting [2]. The T/C by setting is: (T/C endpoint: mean tumor weight, dose: 12.5 mg/kg/injection, schedule: Q01DX010 (sc), vehicle: steroid suspending solution, evaluated on day 12) 2 and 2 % of control [4 of 6 alive]; (T/C endpoint: mean tumor weight, dose: 12.5 mg/kg/injection, schedule: Q01DX010 (sc), vehicle: steroid suspending solution, run until all animals had died) 78 % of control; (T/C endpoint: mean tumor weight, dose: 25.0 mg/kg/injection, schedule: Q01DX010 (sc), vehicle: steroid suspending solution, evaluated on day 12) 2 and 2 % of control [5 of 6 alive]; (T/C endpoint: mean tumor weight, dose: 25.0 mg/kg/injection, schedule: Q01DX010 (sc), vehicle: steroid suspending solution, run until all animals had died) 34 % of control.
`COc1cc(-c2ccc(Nc3ccccc3C(=O)O)c(OC)c2)ccc1N`: the survivor count reads like this: under setting [3], 3 of 6; (T/C endpoint: mean tumor weight, dose: 160.0 mg/kg/injection, schedule: Q01DX010 (ip), vehicle: saline) 0 of 6.
With `Nc1nc(N)c2nc(CNc3ccc(C(=O)NC(CCC(=O)O)C(=O)O)cc3)cnc2n1` (configuration not stated), the survivor count (T/C endpoint: mean tumor weight, dose: 400.0 micrograms/kg/injection, schedule: Q01DX010 (ip), vehicle: other) is reported as 2 of 6.
On to `C[C@H]1C[C@@H]2[C@H]([C@@H](O)C[C@@]3(C)[C@H]2CC[C@]3(O)C(=O)CO)[C@@]2(C)C=CC(=O)C=C12`, for which, under setting [2], the survivor count is 1 of 6.
As to `COc1cc(C[C@H]2c3cc(OC)c(OC)cc3CCN2C)c(Oc2cc3c(cc2OC)-c2c(OC)c(OC)cc4c2[C@H](C3)N(C)CC4)cc1OC`, the survivor count (T/C endpoint: mean tumor weight, dose: 200.0 mg/kg/injection, schedule: Q01DX011 (ip), vehicle: carboxymethylcellulose (CMC)) is recorded as 0 of 4.
As to `Nc1nc(F)nc2c1ncn2C1OC(CO)C(O)C1O` (configuration not stated), the survivor count by setting is: (T/C endpoint: mean tumor weight, dose: 6.0 mg/kg/injection, schedule: Q01DX010 (ip), vehicle: saline) 0 of 7; (T/C endpoint: mean tumor weight, dose: 12.0 mg/kg/injection, schedule: Q01DX010 (ip), vehicle: saline) 0 of 7; (T/C endpoint: mean tumor weight, dose: 24.0 mg/kg/injection, schedule: Q01DX010 (ip), vehicle: saline) 0 of 7.
Turning to `COC1C(OC(=O)/C=C/C=C/C=C/C=C/C(=O)O)CCC2(CO2)C1C1(C)OC1CC=C(C)C` (configuration not stated), under setting [4], the survivor count was 2 of 6.
With `CCn1cnc2c(=S)nc[nH]c21`, the survivor count under setting [5] is 0 of 6 and 1 of 6.
As to `CC(=O)O[C@H]1CC[C@H]2[C@@H]3CC[C@H]4CCCC[C@]4(C)[C@H]3CC[C@]12C`, for the setting “T/C endpoint: mean tumor weight, dose: 50.0 mg/kg/injection, schedule: Q01DX010 (sc), vehicle: steroid suspending solution, evaluated on day 12”, the T/C was 137 % of control.
As for `CN(C)N=Nc1cccc([N+](=O)[O-])c1`, the survivor count reads like this: (T/C endpoint: mean tumor weight, dose: 178.0 mg/kg/injection, schedule: Q01DX011 (ip), vehicle: saline) 0 of 6; (T/C endpoint: mean tumor weight, dose: 267.0 mg/kg/injection, schedule: Q01DX011 (ip), vehicle: saline) 0 of 6; (T/C endpoint: mean tumor weight, dose: 400.0 mg/kg/injection, schedule: Q01DX010 (ip), vehicle: saline) 4 of 7; (T/C endpoint: mean tumor weight, dose: 400.0 mg/kg/injection, schedule: Q01DX011 (ip), vehicle: saline) 0 of 6; (T/C endpoint: mean tumor weight, dose: 600.0 mg/kg/injection, schedule: Q01DX010 (ip), vehicle: saline) 2 of 7; (T/C endpoint: mean tumor weight, dose: 600.0 mg/kg/injection, schedule: Q01DX011 (ip), vehicle: saline) 0 of 6.
Consider `CC(=O)c1ccccc1C`, for which the survivor count (T/C endpoint: mean tumor weight, dose: 60.0 mg/kg/injection, schedule: Q01DX010 (ip), vehicle: saline) is 2 of 6.
For the molecule `CC[n+]1c(-c2ccccc2)c2cc(N)ccc2c2ccc(N)cc21`, the survivor count is on record as 1 of 6 (T/C endpoint: mean tumor weight, dose: 20.0 mg/kg/injection, schedule: Q01DX010 (ip), vehicle: saline) and 0 of 6 under setting [6].
With `CC(CCC(C)OS(C)(=O)=O)OS(C)(=O)=O` (configuration not stated), where the note is “T/C endpoint: mean tumor weight, dose: 32.0 mg/kg/injection, schedule: Q01DX010 (ip), vehicle: saline”, the survivor count is given as 0 of 6.
For the molecule `COc1ccc2c(c1OC)C(=O)O[C@@H]2[C@H]1c2c(cc3c(c2OC)OCO3)CCN1C`, the survivor count is recorded as 2 of 6 under setting [5] and 0 of 6 (T/C endpoint: mean tumor weight, dose: 500.0 mg/kg/injection, schedule: Q01DX010 (ip), vehicle: saline).
For `CC(=O)OC(C)(C)/C=C/C(=O)[C@](C)(O)[C@H]1[C@H](O)C[C@@]2(C)[C@@H]3CC=C4[C@@H](C[C@H](O)C(=O)C4(C)C)[C@]3(CO)C(=O)C[C@]12C`, where the note is “T/C endpoint: mean tumor weight, dose: 0.57 mg/kg/injection, schedule: Q01DX010 (ip), vehicle: saline, evaluated on day 12”, the T/C was 141 % of control [5 of 6 alive].
Consider `CC1(C)O[C@@H]2C[C@H]3[C@@H]4CCC5=CC(=O)C=C[C@]5(C)[C@@]4(F)[C@@H](O)C[C@]3(C)[C@]2(C(=O)CO)O1`, for which the survivor count was 1 of 6 (T/C endpoint: mean tumor weight, dose: 3.75 mg/kg/injection, schedule: Q01DX010 (sc), vehicle: steroid suspending solution); 0 of 6 (T/C endpoint: mean tumor weight, dose: 7.5 mg/kg/injection, schedule: Q01DX010 (sc), vehicle: steroid suspending solution); 0 of 6 (T/C endpoint: mean tumor weight, dose: 15.0 mg/kg/injection, schedule: Q01DX010 (sc), vehicle: steroid suspending solution); 0 of 6 (T/C endpoint: mean tumor weight, dose: 30.0 mg/kg/injection, schedule: Q01DX010 (sc), vehicle: steroid suspending solution).
`C[C@]12CC[C@H](O)C[C@@H]1CC[C@@H]1[C@@H]2C(=O)C[C@]2(C)C3=CC(=O)O[C@H]3C[C@@H]12`: the T/C (T/C endpoint: mean tumor weight, dose: 20.0 mg/kg/injection, schedule: Q01DX010 (sc), vehicle: steroid suspending solution, evaluated on day 12) is 136 % of control.
In the case of `COc1ccc2[nH]c3c(C)c4ccncc4c(C)c3c2c1`, the survivor count runs as follows: under setting [7], 0 of 6; under setting [8], 0 of 6.
For `O=C(C(=O)N1CC1)c1c[nH]c2ccccc12`, the survivor count is, setting by setting: under setting [7], 2 of 6; under setting [8], 0 of 6.
With `CN(Cc1cnc2nc(N)nc(N)c2n1)c1c(Cl)cc(C(=O)NC(CCC(=O)O)C(=O)O)cc1Cl` (configuration not stated), the survivor count reads like this: under setting [6], 3 of 6; under setting [3], 1 of 6.
On to `CN(C)c1nc(N(C)C)nc(N(C)C)n1`, for which the survivor count (T/C endpoint: mean tumor weight, dose: 150.0 mg/kg/injection, schedule: Q01DX010 (ip), vehicle: saline) is reported as 3 of 6.
`O=C(O)CCCc1ccc(N(CCCl)CCCl)cc1`: the survivor count is on record as 1 of 6 (T/C endpoint: mean tumor weight, dose: 12.5 mg/kg/injection, schedule: Q01DX010 (ip), vehicle: saline) and 0 of 6 (T/C endpoint: mean tumor weight, dose: 25.0 mg/kg/injection, schedule: Q01DX010 (ip), vehicle: saline).
As to `CC(=O)OCC(=O)[C@@]1(O)CC[C@H]2[C@@H]3CCC4=CC(=O)[C@H](C)C[C@]4(C)[C@@]3(F)[C@@H](O)C[C@@]21C`, the survivor count reads like this: under setting [1], 1 of 6 and 3 of 6; under setting [2], 0 of 6.
In the case of `CCCNc1ncnc2c1cnn2C`, the survivor count under setting [7] is 1 of 6, the survivor count under setting [8] was 0 of 6 and the survivor count under setting [4] was 0 of 6.
Regarding `CCN(CC)CCCC(C)Nc1c2ccc(Cl)cc2nc2ccc(OC)cc12` (configuration not stated), the survivor count under setting [4] is given as 0 of 6.
As to `O=c1cn[nH]c(=O)[nH]1`, the T/C (T/C endpoint: mean tumor weight, dose: 125.0 mg/kg/injection, schedule: Q01DX010 (ip), vehicle: saline, evaluated on day 12) is 131 % of control and the T/C (T/C endpoint: mean tumor weight, dose: 500.0 mg/kg/injection, schedule: Q01DX010 (ip), vehicle: saline, evaluated on day 12) is 137 % of control.
For `N#Cc1cn(C2OC(CO)C(O)C2O)c2ncnc(N)c12` (configuration not stated), the survivor count (T/C endpoint: mean tumor weight, dose: 0.5 mg/kg/injection, schedule: Q01DX010 (ip), vehicle: saline) was 1 of 6.
With `O=C(NCCCC(NC(=O)OCc1ccccc1)C(=O)NCCCNCCCCNCCCNC(=O)C(CCCNC(=O)OCc1ccccc1)NC(=O)OCc1ccccc1)OCc1ccccc1` (configuration not stated), the T/C (T/C endpoint: mean tumor weight, dose: 0.31 mg/kg/injection, schedule: Q01DX010 (ip), vehicle: saline, evaluated on day 12) is 130 % of control.
